Results deposited as PubChem BioAssay AID504764 (Drosophila RNAi Screening Center, 2011)

- Screen: 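Genome-wide screen for regulators of Notch-driven gene expression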 (primary screen)
- Cells: Drosophila Kc167 cells
- Reagents: long dsRNA against Drosophila genes
- Duration: about 5 days (4 days dsRNA, then 24 h after transfection)
- Conditions: transfection of constitutively active membrane-tethered Notch lacking the extracellular domain, read 24 h later
- Measured: 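Firefly luciferase from an E(spl)m3 reporter with active Notch, plus control-promoter and uninduced reporter wells for normalisation; unnormalised counts, duplicate wells a and b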
- Scale: induced reporter light, run 1, well a and induced reporter light, run 1, well b: higher = more light from the Notch target reporter with active Notch; control promoter light, run 1, well a and control promoter light, run 1, well b: higher = more light from the viral control promoter (cell number, transfection, viability); uninduced reporter light, run 1, well a: higher = more light from the Notch target reporter without active Notch
- Active means: 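Wells with low control signal or poorly matching duplicates excluded; duplicates averaged; per source plate, z beyond ±2 for induced/control log2 ratio or beyond ±1.8 for induced/uninduced marks a hit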
- Meaning of the calls: active = modifier hit (raised or lowered Notch signal); inactive = not a hit
In all, the deposit lists about 22,000 reagents; shown is an unselected part of those with a known target gene and a result. Of all reagents, 403 (1.9%) were called active. 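Unnormalised raw counts per well; ratio z-scores behind the hit calls and whether each hit raises or lowers signal are not deposited.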 The numbers tell different reagents against one gene apart. Not stated in the record: the amount of reagent.

Against CG42360 the deposit lists induced reporter light, run 1, well a = 1.19e5; induced reporter light, run 1, well b = 1.18e5; control promoter light, run 1, well a = 1.30e5; control promoter light, run 1, well b = 1.31e5; uninduced reporter light, run 1, well a = 9320; inactive.
Against Mal-A2, the entry reads induced reporter light, run 1, well a = 2.08e5; induced reporter light, run 1, well b = 2.22e5; control promoter light, run 1, well a = 2.59e5; control promoter light, run 1, well b = 2.30e5; uninduced reporter light, run 1, well a = 16205; inactive.
For Gnptab, the entry reads induced reporter light, run 1, well a = 2.13e5; induced reporter light, run 1, well b = 2.43e5; control promoter light, run 1, well a = 2.50e5; control promoter light, run 1, well b = 2.65e5; uninduced reporter light, run 1, well a = 21170; inactive.
With knock-down of spas, the record shows induced reporter light, run 1, well a = 2.05e5; induced reporter light, run 1, well b = 1.98e5; control promoter light, run 1, well a = 3.04e5; control promoter light, run 1, well b = 2.90e5; uninduced reporter light, run 1, well a = 20360; inactive.
For alpha-Est2 the deposit lists induced reporter light, run 1, well a = 60715; induced reporter light, run 1, well b = 78745; control promoter light, run 1, well a = 53555; control promoter light, run 1, well b = 55425; uninduced reporter light, run 1, well a = 5315; inactive.

An excerpt from above, showing only “induced reporter light, run 1, well a”.
CG42360	1.19e5
Mal-A2	2.08e5

Next results follow:
For Daao2, the entry reads induced reporter light, run 1, well a = 1.45e5; induced reporter light, run 1, well b = 1.40e5; control promoter light, run 1, well a = 1.55e5; control promoter light, run 1, well b = 1.61e5; uninduced reporter light, run 1, well a = 14645; inactive.
For CG46385 #1, the entry reads induced reporter light, run 1, well a = 10590; induced reporter light, run 1, well b = 11075; control promoter light, run 1, well a = 10475; control promoter light, run 1, well b = 8085; uninduced reporter light, run 1, well a = 4750; inactive.
For CG46385 #2 the deposit lists induced reporter light, run 1, well a = 1.78e5; induced reporter light, run 1, well b = 1.99e5; control promoter light, run 1, well a = 2.89e5; control promoter light, run 1, well b = 2.40e5; uninduced reporter light, run 1, well a = 16138; inactive.
CG31559 #1 scored induced reporter light, run 1, well a = 76790; induced reporter light, run 1, well b = 91400; control promoter light, run 1, well a = 70230; control promoter light, run 1, well b = 79655; uninduced reporter light, run 1, well a = 5590; inactive.
Depletion of CG31559 #2 came out at: induced reporter light, run 1, well a = 32980; induced reporter light, run 1, well b = 29255; control promoter light, run 1, well a = 23560; control promoter light, run 1, well b = 26435; uninduced reporter light, run 1, well a = 1910; inactive.
For Cby, the values are induced reporter light, run 1, well a = 1.45e5; induced reporter light, run 1, well b = 1.74e5; control promoter light, run 1, well a = 1.99e5; control promoter light, run 1, well b = 1.86e5; uninduced reporter light, run 1, well a = 10690; inactive.
After knock-down of fw, the screen gave induced reporter light, run 1, well a = 1.26e5; induced reporter light, run 1, well b = 1.34e5; control promoter light, run 1, well a = 1.89e5; control promoter light, run 1, well b = 2.34e5; uninduced reporter light, run 1, well a = 8310; inactive.
